This note sets out measurements from article doi:10.1101/606285.

The chains behind the UniProt entries cited, without tags or fusion partners.
UniProt Q5IBC5: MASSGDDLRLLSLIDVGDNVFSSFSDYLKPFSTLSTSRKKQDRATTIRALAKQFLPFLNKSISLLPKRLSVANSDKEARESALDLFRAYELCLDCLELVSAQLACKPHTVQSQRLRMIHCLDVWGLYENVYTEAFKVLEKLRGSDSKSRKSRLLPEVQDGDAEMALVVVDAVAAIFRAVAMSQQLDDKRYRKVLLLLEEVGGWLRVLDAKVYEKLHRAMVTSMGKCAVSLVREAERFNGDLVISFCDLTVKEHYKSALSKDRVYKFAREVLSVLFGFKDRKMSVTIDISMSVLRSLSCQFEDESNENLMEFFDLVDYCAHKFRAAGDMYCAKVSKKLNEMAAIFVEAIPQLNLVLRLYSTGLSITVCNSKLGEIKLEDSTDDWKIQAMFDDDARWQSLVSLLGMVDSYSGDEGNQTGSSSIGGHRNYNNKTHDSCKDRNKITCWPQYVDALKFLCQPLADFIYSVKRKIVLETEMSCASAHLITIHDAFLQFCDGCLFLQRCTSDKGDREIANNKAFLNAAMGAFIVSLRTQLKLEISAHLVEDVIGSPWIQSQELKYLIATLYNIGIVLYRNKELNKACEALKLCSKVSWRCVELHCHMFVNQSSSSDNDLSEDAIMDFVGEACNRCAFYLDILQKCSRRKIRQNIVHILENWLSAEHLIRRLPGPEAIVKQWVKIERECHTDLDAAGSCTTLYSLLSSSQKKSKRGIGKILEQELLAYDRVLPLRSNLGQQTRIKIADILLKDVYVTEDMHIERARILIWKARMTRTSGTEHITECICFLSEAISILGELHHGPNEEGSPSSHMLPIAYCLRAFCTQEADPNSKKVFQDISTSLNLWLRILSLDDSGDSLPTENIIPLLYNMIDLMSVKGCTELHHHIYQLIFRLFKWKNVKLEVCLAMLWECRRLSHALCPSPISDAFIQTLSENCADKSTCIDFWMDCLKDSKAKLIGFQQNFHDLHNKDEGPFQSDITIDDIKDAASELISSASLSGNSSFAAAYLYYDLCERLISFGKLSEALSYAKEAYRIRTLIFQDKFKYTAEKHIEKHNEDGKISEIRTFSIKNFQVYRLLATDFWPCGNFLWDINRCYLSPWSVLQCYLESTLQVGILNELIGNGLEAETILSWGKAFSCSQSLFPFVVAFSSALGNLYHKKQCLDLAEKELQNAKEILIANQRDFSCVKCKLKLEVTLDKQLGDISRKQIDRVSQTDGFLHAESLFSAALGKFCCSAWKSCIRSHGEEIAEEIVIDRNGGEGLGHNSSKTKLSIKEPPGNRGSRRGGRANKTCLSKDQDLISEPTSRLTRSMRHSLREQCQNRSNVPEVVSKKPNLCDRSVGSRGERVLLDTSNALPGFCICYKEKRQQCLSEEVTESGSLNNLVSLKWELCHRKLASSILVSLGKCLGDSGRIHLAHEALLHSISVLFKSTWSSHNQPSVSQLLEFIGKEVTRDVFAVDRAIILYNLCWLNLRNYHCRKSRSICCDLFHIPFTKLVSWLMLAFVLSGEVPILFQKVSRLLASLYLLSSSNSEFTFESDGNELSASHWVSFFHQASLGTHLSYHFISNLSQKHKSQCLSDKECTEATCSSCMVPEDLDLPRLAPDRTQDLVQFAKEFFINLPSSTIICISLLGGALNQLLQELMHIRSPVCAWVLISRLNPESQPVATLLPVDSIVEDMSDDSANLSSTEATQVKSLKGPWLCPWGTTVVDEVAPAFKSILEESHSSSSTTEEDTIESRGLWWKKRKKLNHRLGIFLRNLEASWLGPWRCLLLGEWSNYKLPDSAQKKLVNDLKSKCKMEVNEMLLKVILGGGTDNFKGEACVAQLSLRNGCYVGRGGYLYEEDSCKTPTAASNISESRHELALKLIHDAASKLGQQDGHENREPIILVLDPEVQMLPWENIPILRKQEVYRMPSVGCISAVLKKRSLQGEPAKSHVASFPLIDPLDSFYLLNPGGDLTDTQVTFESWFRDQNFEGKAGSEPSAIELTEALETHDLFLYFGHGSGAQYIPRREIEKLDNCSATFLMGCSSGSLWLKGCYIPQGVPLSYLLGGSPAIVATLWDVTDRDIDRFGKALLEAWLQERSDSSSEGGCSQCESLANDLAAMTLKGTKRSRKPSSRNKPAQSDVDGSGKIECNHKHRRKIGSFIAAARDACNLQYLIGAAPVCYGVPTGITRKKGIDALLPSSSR

The experiment addresses T1, GS^rhino-tagged PATRONUS1 (PANS1) (Arabidopsis thaliana) (UniProt Q9LJG6).
T1 sequence: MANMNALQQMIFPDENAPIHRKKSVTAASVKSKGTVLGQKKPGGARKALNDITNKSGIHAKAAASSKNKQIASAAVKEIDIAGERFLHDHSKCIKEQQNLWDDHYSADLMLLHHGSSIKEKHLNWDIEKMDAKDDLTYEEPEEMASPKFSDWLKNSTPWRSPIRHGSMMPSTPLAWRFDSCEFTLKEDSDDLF
Briefly: affinity purification with mass spectrometry.

No constants are given. Whether binding was seen depends on the method and setting. Binding seen in cells or lysates may run through a third protein. These calls come from enrichment with a bait or labelling near it, and not all partners need be listed. Tags and fused reporters may be left off the sequences shown.

Consider “SEPARASE (ESP1) (from UniProt Q5IBC5 1-2180) (enzyme)”, for which the binding result is “binds”.
